Experiment: Evaluation of transistor properties of organic transistor devices
Conditions: top-contact organic transistor, spin-coated thin film from chloroform solution, in the air atmosphere
Text: (4) Evaluation of Transistor Properties
For evaluation of transistor properties of the above-described condensed polycyclic aromatic compounds, organic transistor devices were fabricated by the following process.
Organic thin films were formed on n-doped silicon wafers with a thermally oxidized-SiO2 film using chloroform solutions of Compounds 110, 112, 114 and 119, by a spin coat process.
Then, Au was vacuum-deposited on the organic thin film using a shadow mask to thereby fabricate source/drain electrodes. […] The organic transistor device is of a top-contact type; and FIG. 1B illustrates its structure.
It is to be noted that in the organic transistor devices of the Example, the thermally oxidized film on the n-doped silicon wafer functions as an insulator layer (4), and the n-doped silicon wafer functions as both a substrate (6) and a gate electrode (5).
The performance of an organic transistor device depends on the amount of current flowing when a potential is applied between a source and drain electrodes with a potential being applied on a gate electrode. The amount of current can be measured to determine the mobility, which is a characteristic of a transistor. The mobility can be calculated from the expression (a) representing an electric property of carrier species generated in an organic semiconductor layer as a result of application of a gate electric field on SiO2 as an insulator. Id=ZμCi(Vg−Vt)2/2L (a)
wherein, Id is a saturated source-drain current value; Z is a channel width; Ci is an electric capacity of an insulator; Vg is a gate potential; Vt is a threshold potential; L is a channel length; and μ is a mobility (cm^2/Vs) to be determined Ci is a dielectric constant of a SiO2 insulator film used; Z and L are determined from the structure of an organic transistor device; Id and Vg are determined when the current value of an organic transistor device is measured; and Vt can be determined from Id and Vg. By substituting each value for the expression (a), corresponding mobilities at gate potentials can be calculated.
Transistor properties of the above-described condensed polycyclic aromatic compounds, i.e. Compounds 110, 112, 114, 119 and 319, were evaluated in the air atmosphere.

Row | Structure (SMILES) | Mobility | On/Off Ratio | Threshold Potential
1 | CCCCCCCCc1cc2c(cc(CCCCCCCC)c3cc(=C(C#N)C#N)sc32)c2sc(=C(C#N)C#N)cc12 [Compound 110] | 3.3 × 10^−2 cm^2V^−1s^−1 | 10^3 | 8.5 V
2 | CCCCCCCCCCCCc1cc2c(cc(CCCCCCCCCCCC)c3cc(=C(C#N)C#N)sc32)c2sc(=C(C#N)C#N)cc12 [Compound 112] | 4.8 × 10^−2 cm^2V^−1s^−1 | 10^3 | 3.3 V
3 | CCCCCCCCCCCCCCCCc1cc2c(cc(CCCCCCCCCCCCCCCC)c3cc(=C(C#N)C#N)sc32)c2sc(=C(C#N)C#N)cc12 [Compound 114] | 3.3 × 10^−2 cm^2V^−1s^−1 | 10^4 | 1.4 V
4 | CCCCC(CC)Cc1cc2c(cc(CC(CC)CCCC)c3cc(=C(C#N)C#N)sc32)c2sc(=C(C#N)C#N)cc12 (stereo not drawn) [Compound 119] | 0.12 cm^2V^−1s^−1 | 10^4 | 2.3 V
5 | CCCCC(CC)Cc1c2cc(=C(C#N)C#N)sc2cc2c(CC(CC)CCCC)c3cc(=C(C#N)C#N)sc3cc12 (stereo not drawn) [Compound 319] | 6.8 × 10^−3 cm^2V^−1s^−1 | 10^3 | 1.4 V

Source: patent US9859508B2, “Condensed polycyclic aromatic compound and use thereof” (Nippon Kayaku Kabushiki Kaisha, priority 2013, dated 2018)
